Measurements: patent publication US20070212686A1 (WHITEHEAD INSTITUTE FOR BIOMEDICAL RESEARCH, published 2007)

Molecular target: T1, murine T-cadherin (full-length), over-expressed on cells (murine) (UniProt Q9WTR5)
T1 sequence (chain, GPI anchor at the C-terminus (said of T-cadherin in general in the background)): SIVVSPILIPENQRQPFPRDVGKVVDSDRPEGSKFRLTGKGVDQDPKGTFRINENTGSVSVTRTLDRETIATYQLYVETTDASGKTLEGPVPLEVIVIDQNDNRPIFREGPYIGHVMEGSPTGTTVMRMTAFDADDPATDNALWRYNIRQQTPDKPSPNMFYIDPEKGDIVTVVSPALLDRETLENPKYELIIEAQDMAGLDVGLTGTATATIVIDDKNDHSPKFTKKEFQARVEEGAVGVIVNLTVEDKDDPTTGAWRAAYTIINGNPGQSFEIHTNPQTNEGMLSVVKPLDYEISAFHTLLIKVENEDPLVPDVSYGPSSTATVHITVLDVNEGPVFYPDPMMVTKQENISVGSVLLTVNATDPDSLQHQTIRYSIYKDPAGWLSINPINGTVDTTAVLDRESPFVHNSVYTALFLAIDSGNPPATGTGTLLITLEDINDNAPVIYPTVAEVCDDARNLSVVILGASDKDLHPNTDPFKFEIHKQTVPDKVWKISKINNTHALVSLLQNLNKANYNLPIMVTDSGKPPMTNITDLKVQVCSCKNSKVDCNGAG
Experiment: FACS competition on Ba/F3 cells expressing T-cadherin against 6 nM 5'Flag-Acrp30 hexamer

binding: binds
Substance: eukaryotic produced, untagged Acrp30 hexamer (ligand)

No constants are given. Whether binding was seen depends on the method and setting. Binding calls can cover weak binding; strength is not graded here.
